In article PMC10046377, “Inhibitors of the Oncogenic PA2G4-MYCN Protein-Protein Interface” (Cancers, 2023):
These are yes or no findings as the source states them, for the method shown. Binding seen in cells or lysates may run through a third protein. Some entries that bind do so weakly or less than the wild type.

The chains behind the UniProt entries cited, without tags or fusion partners.
UniProt P04198: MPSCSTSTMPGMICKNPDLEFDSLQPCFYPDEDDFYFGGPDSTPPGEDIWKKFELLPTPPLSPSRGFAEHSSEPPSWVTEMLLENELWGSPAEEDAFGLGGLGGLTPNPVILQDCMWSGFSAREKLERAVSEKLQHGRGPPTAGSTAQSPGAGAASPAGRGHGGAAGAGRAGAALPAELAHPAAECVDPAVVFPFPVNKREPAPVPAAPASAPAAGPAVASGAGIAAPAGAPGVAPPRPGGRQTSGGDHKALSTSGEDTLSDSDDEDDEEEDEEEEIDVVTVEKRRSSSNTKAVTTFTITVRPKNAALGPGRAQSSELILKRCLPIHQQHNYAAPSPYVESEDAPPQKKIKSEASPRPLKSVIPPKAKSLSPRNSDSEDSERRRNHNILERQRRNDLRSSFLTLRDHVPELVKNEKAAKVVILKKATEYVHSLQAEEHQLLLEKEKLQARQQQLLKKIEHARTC

Target: v-myc avian myelocytomatosis viral oncogene neuroblastoma derived homolog (MYCN) (human (endogenous in SK-N-BE(2)-C)) (UniProt P04198)
Experiment: co-IP; 750 µg lysate of SK-N-BE(2)-C cells (BC100 buffer: 20 mM Tris-HCl pH 7.9, 100 mM NaCl, 10% glycerol, 0.2 mM EDTA, 0.2% Triton X-100) incubated with MYCN or control mouse IgG antibody, captured by Gammabind G-Sepharose beads, blotted for PA2G4; cells treated for 1 h with #5333 (53 µM) or #5338 (47 µM)

binding: binds
B1: proliferation-associated protein 2G4 (PA2G4) (protein, UniProt Q9UQ80 1-394)
chain: MSGEDEQQEQTIAEDLVVTKYKMGGDIANRVLRSLVEASSSGVSVLSLCEKGDAMIMEETGKIFKKEKEMKKGIAFPTSISVNNCVCHFSPLKSDQDYILKEGDLVKIDLGVHVDGFIANVAHTFVVDVAQGTQVTGRKADVIKAAHLCAEAALRLVKPGNQNTQVTEAWNKVAHSFNCTPIEGMLSHQLKQHVIDGEKTIIQNPTDQQKKDHEKAEFEVHEVYAVDVLVSSGEGKAKDAGQRTTIYKRDPSKQYGLKMKTSRAFFSEVERRFDAMPFTLRAFEDEKKARMGVVECAKHELLQPFNVLYEKEGEFVAQFKFTVLLMPNGPMRITSGPFEPDLYKSEMEVQDAELKALLQSSASRKTQKKKKKKASKTAENATSGETLEENEAGD
